# In patent EP2033655B1 (priority 2007, dated 2009):
# Chains of the proteins cited; added tags and fusions are not shown. Residues count along the entry.
# UniProt P19338, 648-710 limits assumed: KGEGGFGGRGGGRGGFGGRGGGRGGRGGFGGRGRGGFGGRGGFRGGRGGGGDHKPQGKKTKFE
# UniProt P19338, whole entry: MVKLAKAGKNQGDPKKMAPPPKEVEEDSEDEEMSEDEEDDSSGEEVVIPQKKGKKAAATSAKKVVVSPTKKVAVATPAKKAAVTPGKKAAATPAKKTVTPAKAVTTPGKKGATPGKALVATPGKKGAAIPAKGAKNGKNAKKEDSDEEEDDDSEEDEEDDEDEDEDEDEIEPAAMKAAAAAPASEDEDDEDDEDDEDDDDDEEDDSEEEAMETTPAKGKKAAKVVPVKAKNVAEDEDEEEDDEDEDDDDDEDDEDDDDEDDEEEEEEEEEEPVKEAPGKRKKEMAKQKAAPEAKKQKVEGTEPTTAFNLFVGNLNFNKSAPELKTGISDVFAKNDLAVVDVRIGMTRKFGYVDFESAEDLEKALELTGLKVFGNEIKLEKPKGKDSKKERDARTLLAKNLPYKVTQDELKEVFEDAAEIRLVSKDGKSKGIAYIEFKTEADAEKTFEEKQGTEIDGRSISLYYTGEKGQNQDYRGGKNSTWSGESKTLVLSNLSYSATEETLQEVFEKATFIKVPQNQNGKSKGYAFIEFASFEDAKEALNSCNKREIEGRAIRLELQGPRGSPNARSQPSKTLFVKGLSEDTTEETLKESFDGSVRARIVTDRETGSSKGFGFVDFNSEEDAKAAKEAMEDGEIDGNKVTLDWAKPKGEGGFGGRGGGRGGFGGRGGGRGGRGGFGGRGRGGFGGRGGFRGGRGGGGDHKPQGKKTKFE
# Not every detail of the peptide structures is certain; ends, links or a residue may be inferred. Side chains are listed from the residue outwards. Peptide text beside a SMILES is read from it. * marks the point of attachment. X1 = NCCCC[C@H](N)CN1CCC[C@H]1C(=O)*
# Key:
# [1] = biological target: T1, EF-Tu / RGG domain of nucleolin (Homo sapiens, UniProt P19338); format: binding, F. tularensis
# T1 construct: made in house; host or cells: EF-Tu: E. coli BL21 DE3 (pET28a+); p63: chemical synthesis
# [2] = biological target: T2, cell-surface expressed nucleolin (Homo sapiens, UniProt P19338); format: cell-based; conditions: 0.1-0.8 µM
# T2 construct: endogenous in cells; host or cells: HeLa P4 cells
SMILES,effect on binding of the biotin-labeled p63 peptide to EF-Tu [1],degree of inhibition of nucleolin activity compared with HB-19 [2]
N=C(N)NCCC[C@@H](N)C(=O)N[C@H](CCCNC(=N)N)C(=O)N[C@H](CCCNC(=N)N)C(=O)N[C@H](CCCNC(=N)N)C(=O)N[C@H](CCCNC(=N)N)C(=O)N[C@H](CCCNC(=N)N)C(=O)N[C@H](CCCNC(=N)N)C(=O)N[C@H](CCCNC(=N)N)C(=O)N[C@H](CCCNC(=N)N)C(=O)O [9Arg peptide],no apparent effect,–
CC(=O)N[C@@H](CCCCNC(=O)[C@H](CCCNC(=N)N)NC(=O)[C@@H]1CCCN1C[C@@H](N)CCCCN)C(=O)N[C@@H](C)C(=O)N[C@@H](CCCCNC(=O)[C@H](CCCNC(=N)N)NC(=O)[C@@H]1CCCN1C[C@@H](N)CCCCN)C(=O)N1CCC[C@H]1C(=O)NCC(=O)N[C@@H](CCCCNC(=O)[C@H](CCCNC(=N)N)NC(=O)[C@@H]1CCCN1C[C@@H](N)CCCCN)C(=O)N[C@@H](C)C(=O)N[C@@H](CCCCNC(=O)[C@H](CCCNC(=N)N)NC(=O)[C@@H]1CCCN1C[C@@H](N)CCCCN)C(=O)N1CCC[C@H]1C(=O)NCC(=O)N[C@@H](CCCCNC(=O)[C@H](CCCNC(=N)N)NC(=O)[C@@H]1CCCN1C[C@@H](N)CCCCN)C(=O)N[C@@H](C)C(=O)N[C@@H](CCCCNC(=O)[C@H](CCCNC(=N)N)NC(=O)[C@@H]1CCCN1C[C@@H](N)CCCCN)C(=O)N1CCC[C@H]1C(=O)NCC(N)=O [Nucant 7] (Ac-K([Arg-X1])AK([Arg-X1])PGK([Arg-X1])AK([Arg-X1])PGK([Arg-X1])AK([Arg-X1])PG-NH2),–,superior compared to HB-19
